Data reported in paper PMC6092624.
These are yes or no findings as the source states them, for the method shown. In cells and extracts the contact can be indirect.

Molecular target: T1, endogenous RBP2 of mouse brain (mouse (endogenous in brain)) (UniProt Q80U40)
T1 sequence: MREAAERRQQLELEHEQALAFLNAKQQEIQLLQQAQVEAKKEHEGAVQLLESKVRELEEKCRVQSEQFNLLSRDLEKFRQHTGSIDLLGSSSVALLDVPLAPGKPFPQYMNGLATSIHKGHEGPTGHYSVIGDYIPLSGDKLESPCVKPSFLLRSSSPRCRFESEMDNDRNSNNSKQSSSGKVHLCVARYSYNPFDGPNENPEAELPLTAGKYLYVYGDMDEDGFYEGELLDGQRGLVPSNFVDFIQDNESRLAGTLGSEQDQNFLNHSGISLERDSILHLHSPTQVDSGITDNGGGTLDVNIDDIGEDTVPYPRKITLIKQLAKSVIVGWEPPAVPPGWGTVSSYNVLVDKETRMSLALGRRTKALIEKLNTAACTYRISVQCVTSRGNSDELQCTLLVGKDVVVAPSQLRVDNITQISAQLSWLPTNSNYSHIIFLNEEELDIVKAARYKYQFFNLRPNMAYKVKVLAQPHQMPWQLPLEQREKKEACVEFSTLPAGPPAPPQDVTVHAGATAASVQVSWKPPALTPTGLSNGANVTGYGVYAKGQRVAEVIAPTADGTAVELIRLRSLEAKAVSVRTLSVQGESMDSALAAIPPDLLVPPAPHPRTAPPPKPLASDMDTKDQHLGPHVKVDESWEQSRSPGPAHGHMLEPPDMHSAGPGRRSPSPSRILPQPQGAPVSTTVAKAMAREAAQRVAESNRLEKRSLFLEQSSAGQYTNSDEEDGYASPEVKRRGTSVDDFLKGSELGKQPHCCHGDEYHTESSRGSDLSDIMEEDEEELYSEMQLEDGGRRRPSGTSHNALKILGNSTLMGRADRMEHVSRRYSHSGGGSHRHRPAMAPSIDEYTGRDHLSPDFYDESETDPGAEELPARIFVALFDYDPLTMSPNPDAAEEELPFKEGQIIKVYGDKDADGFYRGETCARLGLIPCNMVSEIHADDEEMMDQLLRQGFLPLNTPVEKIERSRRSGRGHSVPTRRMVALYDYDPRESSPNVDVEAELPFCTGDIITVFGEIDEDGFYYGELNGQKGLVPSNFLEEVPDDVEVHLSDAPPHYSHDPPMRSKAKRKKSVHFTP
Assay: co-IP; endogenous proteins of mouse brain homogenates solubilized with Triton X-100 (1%), NP-40 (1%) or SDS (0.3%); immunoprecipitation with antibodies to RBP2 or RIMs; preimmune serum as control

endogenous syntaxin-1 of mouse brain
binding: no binding
